This is one part of the list. These are further read-outs of the screen, such as a control signal, another cell line or another target. No call is given for them. The list favours compounds with an active or inconclusive main result. Potencies come from curve fits of mixed quality, noted in brackets.
Assay: qHTS Assay to Find Inhibitors of Chronic Active B-Cell Receptor Signaling
Conditions: ABC-DLBCL IkBa-CBG/CBR reporter, luminescence ratio (green luciferase fused to IkBa over red control in TMD8 lymphoma cells), 4 h
Method in brief: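 Concentration-response series (up to 46 uM) were applied to TMD8 dual-reporter cells for 4 h at 37C with doxycycline. Green/red ratio, after filter-overlap correction, defined %Activity; red signal alone was normalised to basal cells and zero luminescence.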

[1] = measured here: CBR red luminescence, cell number

## O=C(CN1CCCC1)Nc1ccc(OCc2ccccc2)cc1
[1]
  AC50: 17.8 µM [rising, single point]

## CCCCC(=O)NC(=S)Nc1cc(C(=O)O)ccc1OC
[1]
  AC50: 35.5 µM [falling, partial curve, poor fit]

## CCCn1nnc(NC(=S)NC(=O)c2cccs2)n1
[1]
  AC50: 29.1 µM [falling, single point]

## O=C1N=C(N2CCCCC2)S/C1=C/C1=Cc2ccccc2OC1
[1]
  AC50: 0.708 µM [falling, partial curve, poor fit]

## CCOC(=O)Cc1csc(NC(=O)c2cc(=O)c3ccccc3o2)n1
[1]
  AC50: 11.2 µM [falling, partial curve]

## CCC/C(=N/NC(=O)c1ccccc1Cl)c1ccccc1
[1]
  AC50: 14.1 µM [falling, partial curve, poor fit]

## CS(=O)(=O)c1ccccc1-c1nnc(-c2ccc(Cl)cc2)o1
[1]
  AC50: 11.2 µM [rising, partial curve, poor fit]

## C/C(=N\Nc1cccc(C(=O)O)c1)c1cc2ccccc2o1
[1]
  AC50: 12.6 µM [falling, partial curve]

## O=C(Nc1ccc(Br)cc1Cl)N1CCOCC1
[1]
  AC50: 20 µM [rising, partial curve, poor fit]

## CC(=O)Nc1ccc2nc(NC(=O)c3ccc([N+](=O)[O-])s3)sc2c1
[1]
  AC50: 22.4 µM [falling, single point]

## Cc1ccc2c(c1)N(CC(=O)OCC(=O)NCc1ccccc1)C(=O)CO2
[1]
  AC50: 17.8 µM [rising, partial curve, poor fit]

## COCCSc1nnc(NC(=O)CCS(=O)(=O)Cc2ccccc2)s1
[1]
  AC50: 10 µM [falling, partial curve]

## O=S(=O)(NCc1ccccc1)NCc1cccc(C(F)(F)F)c1
[1]
  AC50: 12.6 µM [rising, partial curve, poor fit]

## CNC(=S)N(Cc1cccs1)Cc1cc2cc(OC)c(OC)cc2[nH]c1=O
[1]
  AC50: 25.9 µM [rising, single point]

## COc1cccc(N2CC(C)Cn3c2nc2c3c(=O)[nH]c(=O)n2C)c1 (stereo not drawn)
[1]
  AC50: 6.31 µM [rising, full curve, poor fit]

## CCC(C)C(=O)OCC1(c2ccc(C)cc2OC(=O)C(C)C)CO1 (stereo not drawn)
[1]
  AC50: 35.5 µM [falling, single point]

## COC(=O)c1ccccc1NC(=O)COc1ccccc1[N+](=O)[O-]
[1]
  AC50: 1.26 µM [falling, partial curve, poor fit]

## Cc1ccc(-c2nc3ncccn3c2NC2CCCCC2)o1
[1]
  AC50: 0.146 µM [falling, partial curve, poor fit]

## COc1cc(NC(=O)c2cccc(Cl)c2)ccc1NC(=O)c1cccs1
[1]
  AC50: 8.91 µM [rising, single point]

## CCc1ccccc1OCCCOc1ccc(OC)cc1
[1]
  AC50: 5.62 µM [rising, single point]

## COc1ccc2[nH]c(=O)c(C3c4cc(OC)c(OC)cc4CCN3C(=O)c3ccco3)cc2c1 (stereo not drawn)
[1]
  AC50: 0.631 µM [rising, full curve, poor fit]
Measured here: IkBa-CBG green luminescence
  AC50: 3.98 µM [falling, partial curve, poor fit]

## CCc1ccc(NC(=O)CSc2ccc(-c3ccco3)nn2)cc1
[1]
  AC50: 1.58 µM [rising, full curve, poor fit]

## O=C(NCCN1CCCCC1)Nc1ccc(Cl)cc1
[1]
  AC50: 10 µM [rising, partial curve, poor fit]

## CNC(C)C#Cc1ccc2c(=O)c3c(OC)cccc3oc2c1 (stereo not drawn)
[1]
  AC50: 6.31 µM [rising, single point]

## CC(C)(C)N1CC(c2nc3ccccc3n2CCOc2ccccc2)CC1=O (stereo not drawn)
[1]
  AC50: 7.31 µM [rising, partial curve, poor fit]

## Cc1c(C(=O)Nc2ccc(S(=O)(=O)N(C)C3CCN(C)CC3)cc2)oc2c(Cl)cccc12
[1]
  AC50: 29.1 µM [falling, single point]

## Cc1ccc(-n2cc3ccc([N+](=O)[O-])cc3n2)cc1
[1]
  AC50: 0.146 µM [rising, full curve]

## Cc1cccc2c1[nH]c1nc(N/N=C\c3ccco3)nnc12
[1]
  AC50: 2.59 µM [falling, partial curve]

## O=C(/C(=C/O)N=Nc1ccc(Cl)cc1)c1ccncc1
[1]
  AC50: 4.47 µM [rising, partial curve, poor fit]

## c1ccc(Nc2cccc3c(Nc4ccccc4)cccc23)cc1
[1]
  AC50: 4.47 µM [rising, partial curve]

## COc1ccc(-c2n[nH]c(C)c2-c2cc(OC)ccc2O)cc1
[1]
  AC50: 0.326 µM [falling, full curve]

## C/C=C(/C)C(=O)Nc1cccc(C2=NOC3(C2)C[C@H](C(N)=O)N(C(=O)c2ccc(Cl)cc2)C3)c1 (stereo partly drawn)
[1]
  AC50: 14.1 µM [falling, single point]

## CC(C)Nc1nc(NNc2nc(Cl)nc(NC(C)(C)C)n2)nc(NC(C)C)n1
[1]
  AC50: 10 µM [rising, partial curve]

## NS(=O)(=O)c1cc(C(=O)N2CCNC(=O)C2)ccc1Cl
[1]
  AC50: 35.5 µM [rising, single point]

## CS(=O)(=O)N(CC(=O)Nc1cccc(Cl)c1)c1ccccc1Cl
[1]
  AC50: 20.6 µM [falling, single point]

## CNc1ccc2c3c(cccc13)C(=O)N(C)C2=O
[1]
  AC50: 10 µM [falling, partial curve]

## N/C(=N\OC(=O)N1CCOCC1)c1ccc(Br)cc1
[1]
  AC50: 35.5 µM [falling, single point]

## C/C(=N\NC(=O)CSCc1ccc(Cl)cc1)c1ccc(NC(=O)c2ccccc2)cc1
[1]
  AC50: 25.9 µM [falling, single point]

## Cc1cc(NS(=O)(=O)c2ccc(Nc3nc(-c4sc(NC(=O)c5ccccc5)nc4C)cs3)cc2)no1
[1]
  AC50: 8.2 µM [falling, partial curve, poor fit]

## NC(=S)N/N=C/c1ccccc1[N+](=O)[O-]
[1]
  AC50: 17.8 µM [rising, partial curve, poor fit]

## CCCc1cc(=O)[nH]c(Nc2ccc(Cl)cc2)n1
[1]
  AC50: 2 µM [rising, partial curve, poor fit]

## CCN(CC)CCNC(=O)c1c(C)oc2cc(Br)c(OC)cc12
[1]
  AC50: 35.5 µM [falling, single point]

Source: PubChem BioAssay AID493014 (National Center for Advancing Translational Sciences (NCATS), 2011)
